Measurements as given in paper PMC5488176.
These are yes or no findings as the source states them, for the method shown.

The chains behind the UniProt entries cited, without tags or fusion partners.
UniProt O82486: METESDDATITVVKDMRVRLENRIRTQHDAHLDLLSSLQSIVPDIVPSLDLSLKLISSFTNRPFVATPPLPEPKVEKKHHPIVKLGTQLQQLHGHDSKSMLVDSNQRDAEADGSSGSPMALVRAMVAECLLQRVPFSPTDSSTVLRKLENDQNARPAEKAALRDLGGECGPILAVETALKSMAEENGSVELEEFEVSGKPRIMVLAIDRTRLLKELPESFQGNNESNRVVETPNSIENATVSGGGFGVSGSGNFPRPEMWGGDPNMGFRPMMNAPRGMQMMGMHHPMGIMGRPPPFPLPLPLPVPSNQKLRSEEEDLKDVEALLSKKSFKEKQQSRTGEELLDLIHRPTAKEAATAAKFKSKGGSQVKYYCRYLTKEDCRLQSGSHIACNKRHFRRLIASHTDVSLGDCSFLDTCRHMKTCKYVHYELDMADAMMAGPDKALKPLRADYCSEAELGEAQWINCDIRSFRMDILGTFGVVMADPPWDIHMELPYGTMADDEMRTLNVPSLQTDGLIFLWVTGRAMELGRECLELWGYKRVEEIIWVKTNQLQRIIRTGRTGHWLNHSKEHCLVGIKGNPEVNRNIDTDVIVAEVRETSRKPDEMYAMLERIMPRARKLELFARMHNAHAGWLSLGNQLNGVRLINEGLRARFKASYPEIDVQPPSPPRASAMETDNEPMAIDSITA

Biological target: MTA, yeast two-hybrid fusion (Arabidopsis thaliana) (UniProt O82486)
Experiment: two-hybrid; yeast two-hybrid, fusions to activation domain (pDEST22) and binding domain (pDEST32); growth on media lacking histidine with 3-AT (-LTH) or lacking adenine (-LTA), recorded after 4 d; three technical and three biological replicates

Substance: MTA, yeast two-hybrid fusion (from UniProt O82486 1-685)
- binding: no binding
